# Experimental data from article PMC7819943, “Rice protein-binding microarrays: a tool to detect cis-acting elements near promoter regions in rice”.
# Protein sequences, listed by entry. Tags and fused reporters are not part of them.
# UniProt Q0JBA9, entry or part of it: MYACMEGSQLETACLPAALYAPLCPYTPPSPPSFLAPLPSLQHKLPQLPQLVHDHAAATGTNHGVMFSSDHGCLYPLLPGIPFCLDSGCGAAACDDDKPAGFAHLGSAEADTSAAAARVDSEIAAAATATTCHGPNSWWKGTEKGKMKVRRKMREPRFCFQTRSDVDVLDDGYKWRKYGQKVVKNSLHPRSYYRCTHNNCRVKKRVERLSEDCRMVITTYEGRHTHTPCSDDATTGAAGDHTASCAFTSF
# The list shows a part of the results.
# Biological target: OsWRKY34 (Oryza sativa, UniProt Q0JBA9 1-250)
# Assay: protein-binding microarray (RPBM); PBS, 2% BSA, 51.3 ng/ul salmon testes DNA, 50 uM zinc acetate, 200 nM TF, 25 C, 1 h; high values mean tight binding
# Details: protein: recombinant; tags: N-terminal polyhistidine and DsRed monomer fusion (pET32a); label: CyDye5-dUTP incorporated in the synthesized complementary strand; 3' TTTTT single-stranded linker to array surface; dsDNA, one strand shown
# Method in brief: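 Using Ni–NTA, transcription factors fused N-terminally to polyhistidine and DsRed were purified after expression in E. coli BL21-CodonPlus. These were incubated at 200 nM with a blocked, double-stranded custom Agilent array for 1 h at 25 °C in a buffer containing 50 µM zinc acetate, and the array was washed. The binding signal is per-feature fluorescence intensity (arbitrary units) on an Axon 4000B scanner.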
row,Sequence,binding signal
1,GCTCGTGTCACTTTCTCGGCAACTTTACCTGCTCTTTTTACGGAGTCACCTAGTGCAG,14600 fluorescence intensity (a.u.)
2,TCCTCCTTTGACCCAGTTAACTTCGCTCCCTTGTTTCCTTCGGAGTCACCTAGTGCAG,9690 fluorescence intensity (a.u.)
3,ATATTTACTGAATACCTGGTAATCCATCTCTTATACATTCCGGAGTCACCTAGTGCAG,8930 fluorescence intensity (a.u.)
4,TTTACATATCATGTACAGGTAGCGTCGTATTTTTATTTTGCGGAGTCACCTAGTGCAG,8120 fluorescence intensity (a.u.)
5,GCCAACTCTCTTTACTATTTAGGGTGTGTTTAGTTCACACCGGAGTCACCTAGTGCAG,8400 fluorescence intensity (a.u.)
6,CGTTGTTTTCATGATTGTCACCATATGTGGTCTGCATTATCGGAGTCACCTAGTGCAG,8980 fluorescence intensity (a.u.)
7,AAAAGGCGTTTGCTTGTTTTTGCTGTGGGTTAATTCGCCTCGGAGTCACCTAGTGCAG,8090 fluorescence intensity (a.u.)
8,CATTCACCGCAACACGCGTGTGTTTTTTGATCGATTCAATCGGAGTCACCTAGTGCAG,10400 fluorescence intensity (a.u.)
9,TCTAGCTAACCATGCCGGCATGCCCAATAATGCTGTTCCACGGAGTCACCTAGTGCAG,8980 fluorescence intensity (a.u.)
10,TGGTTCCTTTTGTATGTGATCGCTCTGTACTTACATTCGTCGGAGTCACCTAGTGCAG,8030 fluorescence intensity (a.u.)
11,TTTACTTTTTTTCTCCTTTCTTATCCCTTTTTTTCTCCTTCGGAGTCACCTAGTGCAG,11200 fluorescence intensity (a.u.)
12,GATCGACCCGAGCTCCTTCCGCCTTGCTCTCTCACCGACGCGGAGTCACCTAGTGCAG,8660 fluorescence intensity (a.u.)
13,ACACGGCATGTGTTGGGTGGTAGTAGATGGGTTTAGTTGGCGGAGTCACCTAGTGCAG,8280 fluorescence intensity (a.u.)
14,GTAAGTGTAATTCCTTTCTACTCCCTCGTTTTAGGTTACACGGAGTCACCTAGTGCAG,11100 fluorescence intensity (a.u.)
15,GAGAGAGAGAGAGAGTCCACGCATCCCGCGCGCCTCCTTTCGGAGTCACCTAGTGCAG,10800 fluorescence intensity (a.u.)
16,CTCTGTTGGTTTCTTGCGGTTTTGATTATTTGTTTGTGGTCGGAGTCACCTAGTGCAG,11900 fluorescence intensity (a.u.)
17,ATTAATGGCAAAAGTTCACAAACTTTGACTTTTGAAACGCCGGAGTCACCTAGTGCAG,9750 fluorescence intensity (a.u.)
18,GACCTTTCCAGACTCCGTTGCAATTCATCTCTCACCACCCCGGAGTCACCTAGTGCAG,8820 fluorescence intensity (a.u.)
19,GAAATACATGCATCACATCCCACGACGTCGCCGCCGATCGCGGAGTCACCTAGTGCAG,11200 fluorescence intensity (a.u.)
20,GTGAAGATTTCTGGTATTAGGGATTAGGGATGTCATACTGCGGAGTCACCTAGTGCAG,8990 fluorescence intensity (a.u.)
21,GGAGAGAATTCCCTCTACGTAGATCCAGTCCAAAACTGAACGGAGTCACCTAGTGCAG,12700 fluorescence intensity (a.u.)

# Some of the entries so far, tab-delimited:
row	Sequence	binding signal
4	TTTACATATCATGTACAGGTAGCGTCGTATTTTTATTTTGCGGAGTCACCTAGTGCAG	8120 fluorescence intensity (a.u.)
10	TGGTTCCTTTTGTATGTGATCGCTCTGTACTTACATTCGTCGGAGTCACCTAGTGCAG	8030 fluorescence intensity (a.u.)

# Continued.

row,Sequence,binding signal
1,GGAAGCATGATCGGGAGGTTTTAGGAAAGATGGCTAATTACGGAGTCACCTAGTGCAG,8810 fluorescence intensity (a.u.)
2,GTAGTGGATTATCGAGCCCCTGTTGTTCCATGAGGATCCGCGGAGTCACCTAGTGCAG,8310 fluorescence intensity (a.u.)
3,TTTGCCCGTGTCATCACGCTTCCATCAGTATCACGCGTTCCGGAGTCACCTAGTGCAG,13500 fluorescence intensity (a.u.)
4,CACCCAAACCCTAGCAACCTCACGCCGCCACCTCCCTCGCCGGAGTCACCTAGTGCAG,8670 fluorescence intensity (a.u.)
5,TACTCTATACTCTATTTCTAATATTCCTTATTTTTAATTCCGGAGTCACCTAGTGCAG,10300 fluorescence intensity (a.u.)
6,ATTCCAGTCCTCTCCATGGTAGTCAACGTCAATTTCTCACCGGAGTCACCTAGTGCAG,8440 fluorescence intensity (a.u.)
7,TGCCACCGCCGGCGCCTCTTCCGCTGAATCCATCTCCACCCGGAGTCACCTAGTGCAG,9920 fluorescence intensity (a.u.)
8,TCTTGTTTTTTGCACGCGTGTTTCCCGAATACGTATTTTACGGAGTCACCTAGTGCAG,10500 fluorescence intensity (a.u.)
9,ACCTGGCCCAACTCCCCGTTTTCCCATGGTAACGATAGCCCGGAGTCACCTAGTGCAG,8020 fluorescence intensity (a.u.)
10,AATAGTTTCCCGTCGATCATGTTCTAATGTTTTTCCTTGTCGGAGTCACCTAGTGCAG,8370 fluorescence intensity (a.u.)
11,GTGATAAAGGCTCGTTGTTTTGGTTATGCTTATTTTTATACGGAGTCACCTAGTGCAG,14600 fluorescence intensity (a.u.)
12,GCTCGCCGAATCGCTTTTTATTTTTCTCTCTCCAACCCTACGGAGTCACCTAGTGCAG,8170 fluorescence intensity (a.u.)
13,ATCCTATCCTACGTGTCATATGCTCCACATCAGCGAGCGGCGGAGTCACCTAGTGCAG,9000 fluorescence intensity (a.u.)
14,ACTCTCCAAATCCATCCATCGATCGAGAATTCCTCTTCTCCGGAGTCACCTAGTGCAG,10600 fluorescence intensity (a.u.)
15,ATTCTCCCCTGCGCCGCCGCCGCCGCCGCCGCCTCAATCGCGGAGTCACCTAGTGCAG,8090 fluorescence intensity (a.u.)
16,AAAACGCGTCGGCTCTCGAACCTTCTTGCATTGTGTCGTCCGGAGTCACCTAGTGCAG,9150 fluorescence intensity (a.u.)
17,CTGTCTTCACCGTGCCGCTCCTTTCCTTCCATTTCATCTCCGGAGTCACCTAGTGCAG,8440 fluorescence intensity (a.u.)
18,CATCTCGTGCTTGTATCCTTGTTCTTCATCTTCTCTCACCCGGAGTCACCTAGTGCAG,10400 fluorescence intensity (a.u.)
19,CCCTAACACCCAGACCAGAATCAGCAGAAGCTGTCCTATTCGGAGTCACCTAGTGCAG,8130 fluorescence intensity (a.u.)
20,CCGTCCTCATCCATCCTAACCACCACCTTCTTATAAATTACGGAGTCACCTAGTGCAG,9380 fluorescence intensity (a.u.)
21,CTGTTACTTCTTTTCTACTGACGTTGATTTAAAATTTTATCGGAGTCACCTAGTGCAG,8980 fluorescence intensity (a.u.)
